PubChem BioAssay AID504791 | Drosophila RNAi Screening Center, 2011
In all, the deposit lists about 23,000 reagents; shown is an unselected part of those that have a named target and a result. In the full data, 199 (0.86%) were called active. 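Plate-scaled ratios behind the calls are not deposited; printed light signals are raw; many rows marked increased or decreased are still called inactive.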 Unmarked entries are inactive. The record does not give: the direction of the score.

Aim: 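Genes of the fly required for silencing by miRNA, siRNA or endo-siRNA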 (primary screen)
System: Drosophila S2-derived reporter cells
Reagents: long dsRNA against Drosophila genes, about 150-250 ng dsRNA per well (siRNA assay); about 80-120 ng (miRNA assay)
Time to read-out: about 5 days (siRNA assay); about 4 days (miRNA assay)
Conditions: copper sulfate induction of reporters: 25 µM (siRNA assay); 200 mM stated (miRNA assay), 1-2 days before reading
Detection: 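Per-well ratio of Renilla over firefly light, expressed relative to that plate's average ratio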
Units: stable assay Renilla, run 1 in luminescence; stable assay firefly, run 1 in luminescence
Hit rule: 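a well was a first-pass pick when its plate-scaled ratio rose above 1.5 (siRNA assay) or 1.6 (miRNA assay), or dropped below 0.6; a gene counted only if two separate dsRNAs agreed on retest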

For TwdlM (TweedleM) [DRSC15810], the entry reads stable assay Renilla, run 1 = 5708; stable assay firefly, run 1 = 5.11e5.
For l(2)37Cb (lethal (2) 37Cb) [DRSC02095] the deposit lists stable assay Renilla, run 1 = 97974; stable assay firefly, run 1 = 1.62e6.
After knock-down of maca [DRSC15738], the screen gave stable assay Renilla, run 1 = 7007; stable assay firefly, run 1 = 4.51e5.
For CG5050 [DRSC02807] the deposit lists stable assay Renilla, run 1 = 7516; stable assay firefly, run 1 = 4.50e5.
With knock-down of Acp65Aa (Adult cuticle protein 65Aa) [DRSC09663], the screen gave stable assay Renilla, run 1 = 6883; stable assay firefly, run 1 = 4.92e5.
CG34136 [DRSC01833] scored stable assay Renilla, run 1 = 6494; stable assay firefly, run 1 = 5.39e5.
For FMRFa (FMRFamide) [DRSC07428] the deposit lists stable assay Renilla, run 1 = 7354; stable assay firefly, run 1 = 4.16e5.
CG33234 [DRSC07994] showed stable assay Renilla, run 1 = 5236; stable assay firefly, run 1 = 4.41e5.
For CG2680 [DRSC18466] the deposit lists stable assay Renilla, run 1 = 6886; stable assay firefly, run 1 = 4.30e5.
For MME1 (Mitochondrial Magnesium Exporter 1) [DRSC02714], the values are stable assay Renilla, run 1 = 15299; stable assay firefly, run 1 = 5.64e5.
psidin (phagocyte signaling impaired) [DRSC15660] showed stable assay Renilla, run 1 = 7111; stable assay firefly, run 1 = 3.86e5.
Depletion of CG10195 [DRSC02026] gave: stable assay Renilla, run 1 = 6519; stable assay firefly, run 1 = 3.76e5.

An excerpt from above, limited to “stable assay Renilla, run 1”:
TwdlM (TweedleM) [DRSC15810]	5708
l(2)37Cb (lethal (2) 37Cb) [DRSC02095]	97974
